No constants are given. Whether binding was seen depends on the method and setting. Binding seen in cells or lysates may run through a third protein. Here binding means that the protein was enriched with, or labelled near, the bait; the list need not be complete. Tags and fused reporters may be left off the sequences shown.
Molecular target: GFP-TNFR1 (UniProt P19438)
Assay: affinity purification with mass spectrometry; GFP-TNFR1-overexpressing Huh7 cell lysates precipitated with magnetic beads conjugated with GFP; within 2 h of TNF-α stimulation; mass spectrometry

Chains of the proteins cited; added tags and fusions are not shown. Residues count along the entry.
UniProt P19438, residues 30-455: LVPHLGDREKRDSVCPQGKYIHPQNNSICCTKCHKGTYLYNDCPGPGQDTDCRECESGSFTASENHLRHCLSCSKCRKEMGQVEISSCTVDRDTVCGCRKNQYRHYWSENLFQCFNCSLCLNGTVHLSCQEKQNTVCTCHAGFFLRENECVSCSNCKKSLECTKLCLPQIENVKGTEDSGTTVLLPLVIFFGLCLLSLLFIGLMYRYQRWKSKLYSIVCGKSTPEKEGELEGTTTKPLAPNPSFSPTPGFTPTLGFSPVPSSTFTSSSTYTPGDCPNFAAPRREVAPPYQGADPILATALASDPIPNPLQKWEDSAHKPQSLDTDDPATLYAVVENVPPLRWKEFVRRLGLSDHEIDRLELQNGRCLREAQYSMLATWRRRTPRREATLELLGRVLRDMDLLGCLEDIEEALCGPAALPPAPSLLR

B1: HRG (histidine-rich glycoprotein), found by mass spectrometry in the GFP-TNFR1 precipitate (protein, UniProt P04196 19-525)
chain: VSPTDCSAVEPEAEKALDLINKRRRDGYLFQLLRIADAHLDRVENTTVYYLVLDVQESDCSVLSRKYWNDCEPPDSRRPSEIVIGQCKVIATRHSHESQDLRVIDFNCTTSSVSSALANTKDSPVLIDFFEDTERYRKQANKALEKYKEENDDFASFRVDRIERVARVRGGEGTGYFVDFSVRNCPRHHFPRHPNVFGFCRADLFYDVEALDLESPKNLVINCEVFDPQEHENINGVPPHLGHPFHWGGHERSSTTKPPFKPHGSRDHHHPHKPHEHGPPPPPDERDHSHGPPLPQGPPPLLPMSCSSCQHATFGTNGAQRHSHNNNSSDLHPHKHHSHEQHPHGHHPHAHHPHEHDTHRQHPHGHHPHGHHPHGHHPHGHHPHGHHPHCHDFQDYGPCDPPPHNQGHCCHGHGPPPGHLRRRGPGKGPRPFHCRQIGSVYRLPPLRKGEVLPLPEANFPSFPLPHHKHPLKPDNQPFPQSVSESCPGKFKSGFPQVSMFFTHTFPK
  binding: binds

Reference: paper PMC7482824
